Results deposited as PubChem BioAssay AID504791 (Drosophila RNAi Screening Center, 2011)

Test: 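Genes whose knock-down strengthens or weakens small-RNA reporter silencing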 (primary screen)
System: Drosophila S2-derived reporter cells
Reagent: long dsRNA against Drosophila genes, about 150-250 ng dsRNA per well (siRNA assay); about 80-120 ng (miRNA assay)
Duration: about 5 days (siRNA assay); about 4 days (miRNA assay)
Conditions: copper sulfate induction of reporters: 25 µM (siRNA assay); 200 mM stated (miRNA assay), 1-2 days before reading
Read-out: 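Dual luciferase assay: Renilla to firefly signal ratio in each well, scaled to the mean ratio of its plate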
Hit rule: 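First-pass picks had plate-scaled ratios over 1.5 for the siRNA assay, over 1.6 for the miRNA assay, or under 0.6; two distinct dsRNAs had to score alike on retest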
The deposit covers about 23,000 reagents; below is a random part of those that have a named target and a result. Of all reagents, 199 (0.86%) got an active call. 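Plate-scaled ratios behind the calls are not deposited; printed light signals are raw; many rows marked increased or decreased are still called inactive.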 The numbers tell different reagents against one gene apart. Names joined by + are all predicted targets of the reagent. The record does not give: the direction of the score.

no.	predicted target	reagent	stable siRNA reporter change	stable assay Renilla, run 1 (luminescence)	stable assay firefly, run 1 (luminescence)	activity call
1	CG30088 (GeneID 246447)	1		8879	3.82e5	inactive
2	kon (GeneID 35104)	1		6328	1.21e6	inactive
3	DIP-iota (GeneID 33925)	1		7239	4.44e5	inactive
4	eIF3d1 (GeneID 42789)	1	reporter ratio lowered past the hit cutoff	4304	3.74e5	inactive
5	Rab14 (GeneID 34840)	1		59310	1.67e6	inactive
6	lqfR (GeneID 42632)	1		8647	3.08e5	inactive
7	lqfR (GeneID 42632)	2		7941	5.22e5	inactive
8	Osi17 (GeneID 40774)	1		6475	5.32e5	inactive
9	CG13725 (GeneID 39928)	1		5526	4.60e5	inactive
10	CG30334 (GeneID 246545)	1		5410	3.81e5	inactive
11	CG33003 (GeneID 318826)	1		4719	4.57e5	inactive
12	Kdm4B (GeneID 318918)	1		8014	4.52e5	inactive
13	CG17580 (GeneID 50228)	1		5479	3.12e5	inactive
14	CG1847 (GeneID 32144)	1		8053	4.17e5	inactive
15	Zip71B (GeneID 39626)	1		7719	3.38e5	inactive
16	CG43317 (GeneID 41916)	1		7464	4.31e5	inactive
17	CG30344 (GeneID 246552)	1		3599	3.62e5	inactive
18	CG17270 (GeneID 42462)	1		8574	4.38e5	inactive
19	CAH9 (GeneID 43264)	1		5571	3.81e5	inactive
20	Daao1 (GeneID 36128)	1		6978	4.15e5	inactive
21	CG13599 (GeneID 42829)	1		7839	4.37e5	inactive
22	Mlf (GeneID 36750)	1	reporter ratio lowered past the hit cutoff	4551	4.28e5	inactive
23	Rph (GeneID 32002)	1		4311	3.34e5	inactive
24	Hmr (GeneID 31988)	1		4695	3.57e5	inactive
25	scra (GeneID 35696)	1		8911	4.33e5	inactive
26	CG4658 (GeneID 34325)	1		8186	5.12e5	inactive
27	CG13051 (GeneID 5740583)	1		7386	4.13e5	inactive
28	ND-51L2 (GeneID 36695)	1		6431	3.83e5	inactive
29	CG34011 (GeneID 3885619)	1		4771	2.98e5	inactive
30	CG15767 (GeneID 31508)	1		5279	2.49e5	inactive
31	CG10737 (GeneID 37202)	1		9477	3.53e5	inactive
32	nyo (GeneID 43716)	1	reporter ratio lowered past the hit cutoff	5622	6.41e5	inactive
33	nyo (GeneID 43716)	2		6707	5.51e5	inactive
34	CG13625 (GeneID 42931)	1		7256	3.74e5	inactive
35	CG15452 (GeneID 33061)	1		6211	4.44e5	inactive
36	alpha-Est8 (GeneID 40899)	1		7248	3.42e5	inactive
37	vir (GeneID 47869)	1		7490	2.99e5	inactive
38	Sbat (GeneID 319043)	1		5528	3.56e5	inactive
39	cry (GeneID 42305)	1		8695	3.77e5	inactive
40	CG7142 (GeneID 42194)	1		6670	2.63e5	inactive
41	sog (GeneID 32498)	1		6582	4.96e5	inactive
42	Acox57D-p (GeneID 37445)	1		1.93e5	3.96e5	inactive
43	sad (GeneID 44858)	1		7639	4.39e5	inactive
44	CG5151 (GeneID 39772)	1	reporter ratio raised past the hit cutoff	5588	1.79e5	inactive
45	CG5151 (GeneID 39772)	2		5232	2.82e5	inactive
46	Cpr11A (GeneID 32198)	1		5379	5.30e5	inactive
47	Dna2 (GeneID 31934)	1		6671	3.66e5	inactive
48	CG15382 (GeneID 33391)	1		8959	5.09e5	inactive
49	CG7126 (GeneID 42202)	1		6166	3.00e5	inactive
50	CG5181 (GeneID 34018)	1		20518	1.04e6	inactive
51	Chro (GeneID 40508)	1		8091	3.28e5	inactive
52	Cyp12c1 (GeneID 40037)	1		9735	5.71e5	inactive
53	Jwa (GeneID 35128)	1		8051	1.13e6	inactive
54	Tsp29Fb (GeneID 34212)	1		6967	3.77e5	inactive
55	ltl (GeneID 38845)	1		6714	5.33e5	inactive
56	ltl (GeneID 38845)	2		6610	4.12e5	inactive
57	CG14985 (GeneID 38470)	1		5220	4.68e5	inactive
58	CG14985 (GeneID 38470)	2		5831	3.58e5	inactive
59	ASPP (GeneID 37422)	1	reporter ratio raised past the hit cutoff	6306	2.32e5	inactive
60	ASPP (GeneID 37422)	2	reporter ratio raised past the hit cutoff	5914	2.74e5	inactive
61	su(f) (GeneID 3354994)	1		6068	3.70e5	inactive
62	shd (GeneID 39592)	1		7235	3.43e5	inactive
63	MED18 (GeneID 31140)	1		6111	3.86e5	inactive
64	CG13359 (GeneID 31028)	1		5954	3.69e5	inactive
65	CG33958 (GeneID 37088)	1		6552	3.42e5	inactive
66	CG33958 (GeneID 37088)	2		7350	2.99e5	inactive
67	CtsK2 (GeneID 36973)	1		8900	3.58e5	inactive
68	CG31463 (GeneID 40978)	1		6910	4.14e5	inactive
69	Top3beta (GeneID 31565)	1		8256	5.41e5	inactive
70	Mcm7 (GeneID 39014)	1		8284	6.17e5	inactive
71	CG11629 (GeneID 35431)	1		5944	3.36e5	inactive
72	dpr7 (GeneID 2768865)	1		7523	3.71e5	inactive
73	CG31373 (GeneID 318700)	1		6998	5.35e5	inactive
74	Acp24A4 (GeneID 318936)	1		8772	6.17e5	inactive
75	CG12995 (GeneID 32707)	1		5328	4.20e5	inactive
76	CG32091 (GeneID 39307)	1		5443	4.43e5	inactive
77	CG32091 (GeneID 39307)	2		5999	3.91e5	inactive
78	CG6044 (GeneID 37558)	1		6022	5.19e5	inactive
79	CG9812 (GeneID 37709)	1		6698	3.77e5	inactive
80	CG18294 + 825-Oak + CG32214 + 2 more	1		9131	6.08e5	inactive
81	zpg (GeneID 251414)	1		7246	4.11e5	inactive
82	Vrp1 (GeneID 37521)	1		10951	1.19e6	inactive
83	Ir75b (GeneID 8673994)	1		8509	3.87e5	inactive

Sorted by “stable assay firefly, run 1 (luminescence)” (low to high): 6 of the entries above.
predicted target	reagent	stable siRNA reporter change	stable assay Renilla, run 1 (luminescence)	stable assay firefly, run 1 (luminescence)	activity call
CG17580 (GeneID 50228)	1		5479	3.12e5	inactive
Zip71B (GeneID 39626)	1		7719	3.38e5	inactive
CG30344 (GeneID 246552)	1		3599	3.62e5	inactive
CG1847 (GeneID 32144)	1		8053	4.17e5	inactive
CG43317 (GeneID 41916)	1		7464	4.31e5	inactive
CG17270 (GeneID 42462)	1		8574	4.38e5	inactive
